Consider 58 compounds from PubChem BioAssay AID2685 (National Center for Advancing Translational Sciences (NCATS), 2010).

Structures are written as SMILES. The list shows a part of the results. Shown are side measurements of this screen, not its main read-out; they come without a call. Most of these compounds were active or inconclusive in the main read-out, so they are no random draw. Potencies come from curve fits of mixed quality, noted in brackets.

This test in a line: qHTS Assay for Lipid Storage Modulators in Drosophila S3 Cells.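 On cell number change: cells counted by Cell Tracker Red CMTPX staining in the red channel.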 The note with it: BODIPY lipid droplet fluorescence, 18-24 h; for cell number change: measured here: cell count max response, cells fed with added oleic acid. The procedure, abridged:
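Drosophila S3 cells loaded with oleic acid (400 uM, as added) and compounds at several concentrations; lipid droplets imaged by 488-nm laser-scanning cytometry, 500–530 nm intensity and object ratio to cell channel. Percent activity normalized to 20 uM Triacsin C.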

Setting [1] is: measured here: lipid fluorescence (Fed channel) AC50, cells fed with added oleic acid.
The mark [2] stands for this setting: measured here: cell number channel AC50, cells fed with added oleic acid.

Take `CC(=O)O[C@H]1C[C@@]2(C)[C@@H](C[C@@H](O)[C@H]3[C@@]4(C)CC[C@@H](O)[C@@H](C)[C@@H]4CC[C@@]32C)/C1=C(\CCC=C(C)C)C(=O)O`: the cell number change worked out at 13.8%. The concentration at half-maximal activity (AC50) under setting [1] was 3.66 µM [rising, full curve, poor fit].
As for `CC1CC(=O)c2c(cc3c(-c4c(O)cc(O)c5c(O)c6c(cc45)OC(C)CC6=O)c(O)cc(O)c3c2O)O1` (centres undefined), the cell number change is -69.5%. Besides, under setting [2], the AC50 is 18.4 µM [falling, single point]. Moreover, the AC50 under setting [1] is 18.4 µM [falling, single point].
As to `O=C(COc1cccc(C(F)(F)F)c1)NCC(c1cccs1)N1CCOCC1` (centres undefined), the cell number change is -5.32%. Besides, the half-maximal activity concentration (AC50) under setting [1] is 2.59 µM [rising, partial curve, poor fit].
With `CN1CCN(c2nc(-c3ccccc3)nc(-c3ccc(F)cc3)c2C#N)CC1`, the cell number change was -5.08%. For the same compound, the half-maximal activity concentration (AC50) under setting [2] is 6.51 µM [rising, single point].
Consider `O=C(Cc1cccs1)N1CCN(c2nc(-c3ccc(Cl)cc3)cs2)CC1`, for which the cell number change was -12.1%. The AC50 under setting [1] was 0.651 µM [falling, full curve].
Regarding `C=CCNC(=O)c1c(N)n(-c2ccc3c(c2)OCO3)c2nc3ccccc3nc12`, the cell number change is -0.406%.
Same read-out and setting: to `CCN(CC)CCNC(=O)Cn1cnc2sc(C)c(S(=O)(=O)N3CCC(C)CC3)c2c1=O` belongs -7.5%.
Turning to `CCCCCCn1c(N2CCN(c3ccccc3)CC2)nc2c1c(=O)n(C)c(=O)n2C`, under setting [1], the AC50 was 1.64 µM [rising, partial curve].
As for `Cc1ccc(CN2CC(C(=O)NCCC3=CCCCC3)CC2=O)cc1` (centres undefined), the cell number change was -37.6%. Also, the AC50 under setting [2] was 16.4 µM [falling, single point]. Moreover, the half-maximal activity concentration (AC50) under setting [1] is 29.1 µM [falling, single point].
For `COc1ccccc1NC(=O)NCC1CC1(Cl)Cl` (centres undefined), the cell number change turned out to be 9.46%. For the same compound, the AC50 under setting [1] is 29.1 µM [falling, single point].
With `O=C(OCC#CCSc1nnc(-c2ccc([N+](=O)[O-])cc2)o1)c1cccs1`, the cell number change is 22.3%. Also, the concentration at half-maximal activity (AC50) under setting [1] is 18.4 µM [falling, partial curve].
On to `c1ccc(-c2csc(-n3cccn3)n2)cc1`, for which the cell number change was 30.6%. In addition, under setting [2], the half-maximal activity concentration (AC50) is 2.06 µM [rising, partial curve].
As to `O=C(OCC(=O)N1CCCc2ccccc21)c1ccccc1NCCO`, the cell number change was -15.4%.
On to `Cc1sc(NC(=O)c2ccco2)c(CN2CCN(c3ccccc3)CC2)c1C`, for which, under setting [2], the half-maximal activity concentration (AC50) is 0.651 µM [rising, single point].
Regarding `CC1CCN(C(=O)c2ccc(S(=O)(=O)N3CCCC3)cc2)CC1`, the cell number change is -11.3%. The AC50 under setting [1] was 29.1 µM [falling, single point].
`CC(C)CC(=O)N1CCN(S(=O)(=O)c2ccc(F)cc2)CC1`: the cell number change was 60%. For the same compound, the AC50 under setting [2] is 23.1 µM [rising, single point].
On to `O=C(O)C1CCCCC1C(=O)NCc1ccccn1` (centres undefined), for which the cell number change came out at 92.3%. The concentration at half-maximal activity (AC50) under setting [2] was 29.1 µM [rising, single point]. The AC50 under setting [1] was 29.1 µM [rising, single point].
`O=C1OCC2=C1C(c1ccccc1)CC(=O)N2c1ccc(F)cc1` (centres undefined): the cell number change amounted to 7.51%.
Regarding `Cn1c(=O)c2c(-c3ccccc3)n(-c3ccccc3O)cc2n(C)c1=O`, the cell number change turned out to be 17.4%. In addition, the AC50 under setting [1] is 1.3 µM [rising, full curve].
For the compound `CCC(C)c1ccccc1NC(=O)COC(=O)c1ccc2[nH]c3c(c2c1)CCCC3` (centres undefined), the cell number change is -60.7%. For the same compound, the AC50 under setting [2] is 16.4 µM [falling, partial curve, poor fit]. For the same compound, the half-maximal activity concentration (AC50) under setting [1] is 0.13 µM [falling, full curve, poor fit].
For `CCOC(=O)C1CCN(Cc2ccc(C(=O)OC)cc2)CC1`, the cell number change came out at 3.77%. For the same compound, under setting [2], the AC50 is 4.11 µM [falling, single point].
Consider `O=C(N/N=C/C(Br)=C/c1ccccc1)c1ccc([N+](=O)[O-])cc1`, for which the cell number change was -26%. The AC50 under setting [1] was 32.6 µM [falling, single point].
For the compound `CC1CCCCN1CCNC(=O)C1CC(=O)N(c2ccc(F)c(Cl)c2)C1` (centres undefined), the cell number change was -37.1%. In addition, the concentration at half-maximal activity (AC50) under setting [2] was 5.17 µM [falling, partial curve]. Also, under setting [1], the AC50 is 5.8 µM [falling, partial curve].
Take `CCOC(=O)c1c(NC(=O)C2C3C=CC(CC3)C2C(=O)O)sc(C)c1CC` (centres undefined): the cell number change is 11.5%. For the same compound, the AC50 under setting [1] was 0.116 µM [falling, full curve, poor fit].
As for `CCn1c(O)c(N=NC(=O)c2cccs2)c2ccccc21`, the cell number change is 10.3%. Further, under setting [2], the half-maximal activity concentration (AC50) was 0.00517 µM [rising, full curve, poor fit].
As for `COC(=O)c1c(-c2cccnc2)csc1NC(=O)c1cc(C)on1`, the cell number change was 12.4%.
Take `COCCN1CCN(C(=O)c2ccc3oc(CCc4ccccc4)nc3c2)CC1`: the cell number change is -4.05%. Further, the AC50 under setting [1] is 14.6 µM [rising, single point].
For `CCOC(=O)Cc1csc2nc3sc(C)c(C)c3c(=O)n12`, the cell number change was found to be 41.5%. Also, the concentration at half-maximal activity (AC50) under setting [2] is 0.92 µM [rising, full curve, poor fit].
As for `CCCOc1nc2ccccc2cc1/C=C/C(=O)O`, the cell number change came to 31.9%. The AC50 under setting [2] was 0.146 µM [rising, full curve, poor fit]. Also, the AC50 under setting [1] is 0.13 µM [rising, full curve, poor fit].
Regarding `CC1CCCCC1NC(=O)CO/N=C/c1ccc(OC(F)F)cc1` (centres undefined), the cell number change came to 20.9%. For the same compound, the AC50 under setting [1] was 0.447 µM [rising, full curve, poor fit].
Regarding `N#CC1=C(SCC(=O)Nc2nccs2)NC(=O)CC1c1ccccc1` (centres undefined), the cell number change stood at 14.8%. For the same compound, the AC50 under setting [2] was 0.184 µM [rising, partial curve, poor fit]. Further, the AC50 under setting [1] was 0.517 µM [rising, partial curve, poor fit].
`CC1=CC(=C(C#N)C#N)C=C(C)N1CCN1CCN(C(=O)Nc2ccc(Cl)c(Cl)c2)CC1`: the cell number change was 20.3%. Besides, the AC50 under setting [2] is 0.058 µM [rising, full curve, poor fit].
For the compound `CCOc1c(C(N)=O)c(-c2ccccc2)c2c(=O)[nH]c3ccccc3n12`, the half-maximal activity concentration (AC50) under setting [2] is 0.731 µM [rising, full curve, poor fit].
Consider `COc1cc(CN2CCCC(C(=O)c3ccc(SC)cc3)C2)cc(Cl)c1O` (centres undefined), for which the cell number change was -16.4%. In addition, the AC50 under setting [1] is 6.51 µM [falling, single point].
`CCOC(=O)c1sc(NC(=O)Nc2ccc(Cl)cc2)cc1C`: the cell number change is -138%. Also, the half-maximal activity concentration (AC50) under setting [2] was 10.3 µM [falling, partial curve]. Also, the AC50 under setting [1] was 8.2 µM [falling, partial curve].
With `CCOC(=O)c1c(NC(=O)COc2cccc3c2CCN(CC)C3=O)sc2c1CCC2`, the cell number change amounted to 14.4%.
Consider `Cc1oc(-c2ccccc2F)nc1CS(=O)(=O)CC(=O)NCCCN1CC(C)CC(C)C1` (centres undefined), for which the cell number change was found to be 41.3%. The half-maximal activity concentration (AC50) under setting [2] was 18.4 µM [rising, single point].
Turning to `COc1cccc2c1cc1c(=O)n(CC(=O)NCCCN3CCN(C)CC3)nc(C)n12`, the cell number change was 4.48%.
For the compound `COc1ccc2c(c1)O[C@H](c1ccc3c(c1)OCO3)[C@@H](OC(=O)N[C@H](C)C1CCCCC1)C2=O`, the cell number change was found to be 18.6%. Besides, under setting [1], the concentration at half-maximal activity (AC50) is 1.64 µM [rising, partial curve].
`CNC(=O)c1cc(Nc2nnc(C)c3ccccc23)ccc1OC`: the AC50 under setting [2] is 0.651 µM [rising, partial curve] and the AC50 under setting [1] was 0.731 µM [rising, single point].
For `Clc1ccc(-n2nnnc2-c2cnc3ccc(Cl)cc3c2-c2ccccc2)cc1`, the cell number change was 13.4%. Moreover, the AC50 under setting [1] is 5.8 µM [rising, single point].
For `Cc1c2c(nc3nc4ccccc4n13)CC(C)(C)CC2=O`, the cell number change was 204%. The AC50 under setting [2] was 29.1 µM [rising, single point].
Take `COc1cc(/C=c2\sc3nc(-c4ccncc4)nn3c2=O)ccc1OC(C)=O`: the cell number change was determined as 11.6%. Besides, the AC50 under setting [1] was 29.1 µM [rising, single point].
Turning to `CCCCCCC(=O)Nc1c2c(nc3ccccc13)N(C)CC2`, the cell number change was -4.58%. Also, under setting [2], the concentration at half-maximal activity (AC50) was 0.206 µM [falling, full curve, poor fit]. The AC50 under setting [1] was 0.651 µM [rising, single point].
As for `COC(=O)[C@@]12CCCN1[C@H](c1ccc(-c3ccc(OC)cc3)c(OC)c1)[C@H]1C(=O)N(C)C(=O)[C@H]12`, under setting [1], the half-maximal activity concentration (AC50) is 0.58 µM [falling, full curve, poor fit].
On to `O=C(CN(c1ccccn1)S(=O)(=O)c1ccc(F)cc1)Nc1ccccc1`, for which the cell number change is -3.12%. Under setting [2], the half-maximal activity concentration (AC50) is 0.651 µM [falling, single point]. The concentration at half-maximal activity (AC50) under setting [1] is 0.00461 µM [falling, full curve, poor fit].
For `CCOc1ccccc1OCCCCCc1c(C)n[nH]c1C`, the cell number change was -28.9%. Moreover, the AC50 under setting [1] was 13 µM [falling, partial curve].
Take `CC(OC(=O)c1ccc(NC(=O)CC#N)cc1)C(=O)NCCC1=CCCCC1` (centres undefined): the cell number change was 34.3%. Moreover, the AC50 under setting [2] was 29.1 µM [rising, single point]. The AC50 under setting [1] was 18.4 µM [rising, single point].
As to `O=C(O)C1CSC(c2ccc(O)c([N+](=O)[O-])c2)N1` (centres undefined), the cell number change was -17.3%. Besides, the AC50 under setting [1] was 29.1 µM [rising, single point].
For `COc1cc(CNc2ccc(C)c(C)c2)cc(OC)c1OC`, the concentration at half-maximal activity (AC50) under setting [1] was 2.31 µM [falling, full curve].
For `CC1CCN(C(c2cccs2)c2nnnn2Cc2ccccc2)CC1` (centres undefined), the cell number change was found to be 94.4%. Under setting [2], the AC50 was 16.4 µM [rising, partial curve, poor fit]. In addition, the concentration at half-maximal activity (AC50) under setting [1] is 1.64 µM [rising, partial curve].
For `CCc1cc2c(cc3c(=O)n(CC(=O)NCCCN4CCCCCC4)nc(CC)n32)s1`, the cell number change was -17.3%. For the same compound, the AC50 under setting [1] is 29.1 µM [rising, single point].
Take `Clc1ccc(-c2csc(N3CCSCC3)n2)cc1`: the cell number change is -31.6%. Also, under setting [2], the AC50 is 0.291 µM [falling, full curve, poor fit].
On to `O=C(CSC(=S)N1CCCC1)NCC(=O)Nc1ccc(F)c(F)c1`, for which the cell number change turned out to be 9.73%.
The same measure, in the same setting: the figure for `COc1ccc(OCC(=O)N/N=C/C(C)=C/c2ccco2)c(Br)c1` is 147%.
On to `CCCOC(=O)c1ccc(Nc2cc(C)nc3ncnn23)cc1`, for which the cell number change is 19.7%. Also, the concentration at half-maximal activity (AC50) under setting [1] is 6.51 µM [rising, single point].
Consider `CCCCCCCOc1ccc(-c2ccc(C#N)cn2)cc1`, for which the cell number change amounted to 20.2%. Also, under setting [1], the AC50 was 29.1 µM [rising, single point].
As for `Cc1ccc(C(=O)COC(=O)CN2C(=O)C3C4C=CC(C4)C3C2=O)cc1[N+](=O)[O-]` (centres undefined), the cell number change worked out at 13%. For the same compound, under setting [1], the AC50 is 7.31 µM [rising, partial curve].
